Test results: patent US20030162187A1, “Method of detecting sexual differentiation disruptor” (priority 1999, published 2003)
Where “and” joins values, the source holds several entries; their conditions need not be identical. Equal values may be shown once. For at least one compound, name, drawing or mass did not settle the structure.

Test system: Qurt medaka
Assay: Detection of sexual differentiation-disrupting activity: eggs bred in test solution, genotypic sex by pigment, phenotypic sex by RT-PCR of female-specific Gene 5
Type: in vivo, medaka (Oryzias latipes)
Conditions: eggs treated with 1 ppb 17 β-estradiol in 0.1% DMSO, collected 12th day after spawning, nested RT-PCR
Description: Pairs of mature Qurt medakas each consisting of one male and one female were bred in 3 L of green water (purified water containing chlorella from green algae) at 25° C. under conditions of a light period for 14 hours and a dark period for 10 hours. They were fed with TetraMin three to five times a day setting the amount of TetraMin such that it was consumed within three to five minutes,;and then spawned. Eggs resulted from five pairs were placed in a Petri dish immediately after spawning, separated each other using tweezers in tap water from which chlorine had been removed and washed. The water was replaced by a 1 -ppb 17 β-estradiol (E2) aqueous solution containing 0.1% dimethyl sulfoxide. The mixture was dispensed into wells of 96-well round bottom microplate (#3797, Corning) which had been extensively washed with ultrapure water such that each well contained one egg. After covering with a lid, the microplate was incubated in an incubator at 25° C. On the third day from the start of incubation, males and females were distinguished by examining the yellow pigment which is expressed in a male-specific manner as autofluorescence using a fluorescence microscope (Nikon) The incubation was further continued, and fries then hatched on the 7th to 9th day after spawning. […]

SMILES: C[C@]12CC[C@@H]3c4ccc(O)cc4CC[C@H]3[C@@H]1CC[C@@H]2O [17 β-estradiol]
- Expression of Gene 5 (individual one fries): + (3×) and − (2×)
- Expression of Gene 5 (individual two fries): − (3×) and + (2×)
